The results in this text go back to publication PMC9971319.

Protein sequences, listed by entry. Tags and fused reporters are not part of them.
UniProt Q9NRC8: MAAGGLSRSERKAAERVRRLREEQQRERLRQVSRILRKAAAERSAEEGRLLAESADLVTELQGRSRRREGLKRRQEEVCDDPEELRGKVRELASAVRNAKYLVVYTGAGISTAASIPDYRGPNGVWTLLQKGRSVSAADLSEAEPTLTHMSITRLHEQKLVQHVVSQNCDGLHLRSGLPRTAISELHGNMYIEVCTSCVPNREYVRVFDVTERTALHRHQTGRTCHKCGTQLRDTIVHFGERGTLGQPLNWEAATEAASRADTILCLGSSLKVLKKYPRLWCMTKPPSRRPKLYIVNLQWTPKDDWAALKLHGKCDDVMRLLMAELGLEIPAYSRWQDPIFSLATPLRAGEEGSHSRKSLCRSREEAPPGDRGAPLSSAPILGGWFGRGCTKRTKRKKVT
UniProt Q8BKJ9: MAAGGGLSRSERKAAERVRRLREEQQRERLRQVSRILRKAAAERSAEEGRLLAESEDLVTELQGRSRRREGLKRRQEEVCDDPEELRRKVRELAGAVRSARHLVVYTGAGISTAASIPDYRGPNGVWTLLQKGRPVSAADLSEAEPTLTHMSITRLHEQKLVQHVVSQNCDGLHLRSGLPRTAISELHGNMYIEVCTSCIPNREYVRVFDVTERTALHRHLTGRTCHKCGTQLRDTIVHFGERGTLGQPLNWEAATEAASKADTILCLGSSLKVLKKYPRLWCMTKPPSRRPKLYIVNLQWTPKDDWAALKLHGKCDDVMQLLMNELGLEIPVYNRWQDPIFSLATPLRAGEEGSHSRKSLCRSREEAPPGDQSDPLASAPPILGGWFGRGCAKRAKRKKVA

No constants are given. Whether binding was seen depends on the method and setting. In cells and extracts the contact can be indirect. Some binding calls cover weakened binding; strength is not graded here. For part of these data: Sequences can lack the tags named with a protein.

Assay [1] addresses SIRT7-V5/His (V5/His-tagged human wildtype sirtuin 7) (human) (UniProt Q9NRC8). The experiment in a line: co-IP; HEK293 cells co-transfected with tagged FBXO7 and SIRT7-V5/His; lysates in 1% Nonidet P-40 lysis buffer (50 mM Tris pH 7.5, 150 mM NaCl, 10% glycerol) immunoprecipitated with anti-V5 antibody overnight at 4 °C, Protein A Sepharose, immunoblot. Background: A western blot detects proteins with antibodies after separation by electrophoresis.

The target in assay [2] is endogenous SIRT7 (mouse whole brain) (mouse (endogenous in whole brain)) (UniProt Q8BKJ9). Put plainly: co-IP; endogenous proteins; mouse whole-brain lysates (50 mM Tris pH 7.4, 150 mM NaCl, 1% Triton X-100, 0.5% sodium deoxycholate, 0.1% SDS) immunoprecipitated with anti-SIRT7 IgG, immunoblot.

B1: FLAG-FBXO7-▵C (FBXO7 lacking the C-terminal region of amino acids 376 to 522) (domain or fragment, UniProt Q9Y3I1 1-375)
chain: MRLRVRLLKRTWPLEVPETEPTLGHLRSHLRQSLLCTWGYSSNTRFTITLNYKDPLTGDEETLASYGIVSGDLICLILQDDIPAPNIPSSTDSEHSSLQNNEQPSLATSSNQTSMQDEQPSDSFQGQAAQSGVWNDDSMLGPSQNFEAESIQDNAHMAEGTGFYPSEPMLCSESVEGQVPHSLETLYQSADCSDANDALIVLIHLLMLESGYIPQGTEAKALSMPEKWKLSGVYKLQYMHPLCEGSSATLTCVPLGNLIVVNATLKINNEIRSVKRLQLLPESFICKEKLGENVANIYKDLQKLSRLFKDQLVYPLLAFTRQALNLPDVFGLVVLPLELKLRIFRLLDVRSVLSLSAVCRDLFTASNDPLLWRFL
For B1, the binding entry in assay [1] is on record as “binds”.

B2: endogenous FBXO7 (mouse whole brain) (protein, UniProt Q3U7U3 1-523)
chain: MKLRVRLQKRTQPLEVPESEPTLGQLRAHLSQVLLPTLGFSSDTRFAITLNNKDALTGDEETLASYGIVSGDLICLVLEDDMPAPNLPSSTDTEHSSLQDNDQPSLAATPSQTNIPDEQGTDSSQGQATPFDAWTDDSMEGPSQNVEAESIQDAMSMEEVSGFHPLEPMLCNETEDGQVPHSLETLYQSAGCSNISDALIVLVHLLMLESGYIPQGTETKAVTMPEKWKSSGVYKLQYTHPLCEGGFAVLTCVPLGNLIIINATIKVNGGIKNVKSVQLQPGSYVAAGVEPGESAAKVYKDLKKLSRLFKDQLVYPLLAFTRQVLNLPDVFGLVVLPLELKLRIFRLLDVHSVLALSAVCHDLLIASNDPLLWRCLYLRDFRDGTVRGPDTDWKELYRKKHIQRKEAQRMRHAMFLPSAHPIPFCPIPVYPRAYLPTSLLPPGIIGGEYDERPILPSVGDPVTSLIPRPGELPGQFRPLRPRFDPVDPLPGPHSLLPGRAIPNNRFPFRPGRGRSADSRLPFL
In the case of B2, the binding result in assay [2] is reported as “binds”.

B3: FLAG-FBXO7-▵N (FBXO7 lacking the N-terminal region of amino acids 1 to 333) (domain or fragment, UniProt Q9Y3I1 334-522)
chain: VLPLELKLRIFRLLDVRSVLSLSAVCRDLFTASNDPLLWRFLYLRDFRDNTVRVQDTDWKELYRKRHIQRKESPKGRFVMLLPSSTHTIPFYPNPLHPRPFPSSRLPPGIIGGEYDQRPTLPYVGDPISSLIPGPGETPSQFPPLRPRFDPVGPLPGPNPILPGRGGPNDRFPFRPSRGRPTDGRLSFM
With B3, in assay [1], the binding result is on record as “no binding”.
